PubChem BioAssay AID504793 – Drosophila RNAi Screening Center – 2011

Purpose: 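Whole-genome screen for parts of the DNA damage checkpoint at G2/M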 (primary screen)
Cell system: Drosophila S2R+ cells
Knock-down reagent: long dsRNA against Drosophila genes, about 0.25 µg dsRNA per well
Timing: 4 days of dsRNA, then 4 hours of drug before read-out
Challenge: doxorubicin 0.5 µM for 4 hours to cause double-strand breaks, in cells also given a low, harmless dose of dsRNA against nbs to sensitise the assay
Measurement: 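Mitotic index as the number of phospho-histone H3-positive cells in each well following doxorubicin, given as raw counts without normalisation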
Direction: mitotic cells: higher = more cells in mitosis, weaker G2 arrest
Call rule: 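Genes are called active only when high mitotic counts were reproduced with independent dsRNAs and mitosis was checked for delay without damage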
Calls: active = confirmed in follow-up tests; inactive = not confirmed
The screen tested about 23,000 reagents; shown is a random part of those that have a named target and a result. In the full data, 62 (0.27%) were called active. 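Calls come from follow-up tests whose scores are not deposited, so confirmed genes may have low counts here; counts are not normalised per plate.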 The raw values are shown without normalisation. No sequences are given here.

Silencing of CG13373 [DRSC27059] resulted in: mitotic cells, replicate 1 = 5; inactive.
With knock-down of RpS18 [DRSC07540], the record shows mitotic cells, replicate 1 = 3; inactive.
Ssu72 [DRSC19572] showed mitotic cells, replicate 1 = 11; inactive.
For Ssu72 [DRSC27868], the entry reads mitotic cells, replicate 1 = 5; inactive.
For Tsp42Ed [DRSC05940] the deposit lists mitotic cells, replicate 1 = 6; inactive.
With knock-down of CG13694 [DRSC00363] the results were mitotic cells, replicate 1 = 2; inactive.
mthl7 [DRSC10852] scored mitotic cells, replicate 1 = 3; inactive.
Against sordd1 [DRSC28653], the values are inactive.
Silencing of Hsc70-2 [DRSC16710] gave: mitotic cells, replicate 1 = 3; inactive.
Hsc70-2 [DRSC28457] scored mitotic cells, replicate 1 = 6; inactive.
Silencing of Rpt4R [DRSC10791] resulted in: mitotic cells, replicate 1 = 3; inactive.
Silencing of Rpt4R [DRSC25928] resulted in: mitotic cells, replicate 1 = 4; inactive.
With knock-down of tx (retired record) [DRSC16931], the record shows mitotic cells, replicate 1 = 2; inactive.
Against tx (retired record) [DRSC27383], the values are mitotic cells, replicate 1 = 6; inactive.
Depletion of CG15930 [DRSC18107] resulted in: mitotic cells, replicate 1 = 16; inactive.
CG15930 [DRSC29656] gave mitotic cells, replicate 1 = 11; inactive.
RpL8 [DRSC08532] scored mitotic cells, replicate 1 = 6; inactive.
With knock-down of RpL8 [DRSC08695], the record shows mitotic cells, replicate 1 = 14; inactive.
RpL8 [DRSC29905] showed mitotic cells, replicate 1 = 6; inactive.
For Egfr [DRSC03871], the values are mitotic cells, replicate 1 = 8; inactive.
Silencing of Egfr [DRSC04613] gave: mitotic cells, replicate 1 = 4; inactive.
After knock-down of CG32374 [DRSC10986], the record shows mitotic cells, replicate 1 = 6; inactive.
Against hpRNA:CR18854 [DRSC02702], the values are mitotic cells, replicate 1 = 6; inactive.
After knock-down of hpRNA:CR18854 [DRSC29809], the record shows mitotic cells, replicate 1 = 10; inactive.

In a second layout: 5 of the entries above.
Gene | DRSC id | mitotic cells, replicate 1 | Outcome
RpL8 | DRSC08532 | 6 | inactive
RpL8 | DRSC08695 | 14 | inactive
RpL8 | DRSC29905 | 6 | inactive
Egfr | DRSC03871 | 8 | inactive
Egfr | DRSC04613 | 4 | inactive

More entries follow.
Silencing of unc-4 [DRSC20381] gave: mitotic cells, replicate 1 = 9; inactive.
After knock-down of unc-4 [DRSC22074], the record shows mitotic cells, replicate 1 = 10; inactive.
After knock-down of unc-4 [DRSC25459], the screen gave mitotic cells, replicate 1 = 2; inactive.
Silencing of CG32189 [DRSC09511] came out at: mitotic cells, replicate 1 = 10; inactive.
Against CG32189 [DRSC26756], the entry reads mitotic cells, replicate 1 = 9; inactive.
For nAChRbeta2 [DRSC17010], the values are mitotic cells, replicate 1 = 4; inactive.
dgt4 [DRSC18659] gave mitotic cells, replicate 1 = 81; inactive.
For dgt4 [DRSC28573], the values are mitotic cells, replicate 1 = 19; inactive.
CG12824 [DRSC06173] showed mitotic cells, replicate 1 = 5; inactive.
CG46441 [DRSC15561] scored mitotic cells, replicate 1 = 11; inactive.
CG46441 [DRSC24659] scored mitotic cells, replicate 1 = 9; inactive.
CG15635 [DRSC00470] showed mitotic cells, replicate 1 = 13; inactive.
Silencing of CG15635 [DRSC22873] came out at: mitotic cells, replicate 1 = 7; inactive.
Prestin [DRSC10507] scored mitotic cells, replicate 1 = 11; inactive.
Silencing of S-Lap5 [DRSC06732] came out at: mitotic cells, replicate 1 = 5; inactive.
S-Lap5 [DRSC24405] gave mitotic cells, replicate 1 = 9; inactive.
Coop [DRSC06604] showed mitotic cells, replicate 1 = 7; inactive.
For Coop [DRSC25252], the values are mitotic cells, replicate 1 = 6; inactive.
Lfg [DRSC06853] gave mitotic cells, replicate 1 = 7; inactive.
